# Test results as given in PubChem BioAssay AID1259415 (National Center for Advancing Translational Sciences (NCATS), 2018).
# In all, about 410,000 compounds went through this assay and about 18,000 (4.4%) were called active. Inconclusive means that the source gave no clear call. Such entries were picked first, then a sample of the others. No stated cut-off is given here; in the data, active means activity change below about -60%; inconclusive means no clear call, values can overlap the other calls; inactive means above about -39%.
# Assay: qHTS Assay for inhibitors of the human cytomegalovirus (HCMV)
# Settings: HFF cells, HCMV-luciferase reporter, 72 h; at 57.5 µM; stronger effect = lower value
# Outline: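 Steps: HFFs plated, 16 h 37C; compounds added; HCMV-luciferase added to MOI 1 PFU/cell; 72 h 37C; OneGlo reagent, 5 min room temperature; luminescence read, normalized to controls.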
# On the % scale 0 is the no-effect control and ±100 the full control effect.
row,SMILES,"activity change, negative = inhibition"
1,Cc1ccc(Nc2ncnc3c2cnn3-c2ccc(C)cc2)cc1,inactive: 33.7%
2,C=CCCC1CN(Cc2ccco2)S(=O)(=O)c2c(F)cccc2O1 (stereo not given),inconclusive: -48%
3,Cc1oc(-c2ccc(C(=O)NC(C)c3ccccc3)cc2)nc1CS(=O)(=O)c1ccccc1 (stereo not given),inactive: 2.02%
4,CCOC(=O)c1[nH]cc(-c2ccccc2)c1N1CCOCC1,inconclusive: -43%
5,COc1ccc2c(COC(=O)c3cccc(S(=O)(=O)NCC(C)C)c3)cc(=O)oc2c1,inconclusive: -47.1%
6,Cc1ccc(-c2csc3nc(SCC(=O)Nc4ccc(Cl)c(C(=O)O)c4)[nH]c(=O)c23)cc1,inactive: -4.27%
7,O=C(c1ccccc1F)N1CCC(c2nc3c(nnn3Cc3cccc(F)c3)c(=O)[nH]2)CC1,inactive: 67.9%
8,Cc1ccc(S(=O)(=O)c2cc3ccccc3oc2=Nc2ccc3c(c2)OCCO3)cc1,inconclusive: -42.4%
9,Cc1ccc(NC(=O)N/C=C/c2ccco2)cc1C,active: -108%
10,CCOC(=O)c1ccc(NC(=S)N2CCSC2c2ccc(Br)cc2)cc1 (stereo not given),active: -61.4%
11,Cc1ccc(NC(=O)CNC(=O)N2CC(=O)Nc3ccccc32)cc1F,inconclusive: -41.9%
12,O=C(CN1CCN(S(=O)(=O)/C=C/c2ccccc2)CC1)Nc1ccc(N2CCOCC2)cc1,inconclusive: -50.8%
13,COc1ccc(NC(=O)Cn2c(=O)oc3cc(S(=O)(=O)N4CCCCC4C)ccc32)cc1 (stereo not given),inconclusive: 0%
14,Cc1nc2ccccc2cc1OCc1ccc(F)cc1,active: -82.9%
15,CC(C)Oc1ccc(C(=O)Nc2cccc(S(=O)(=O)N3CCCC3)c2)cc1,inconclusive: -53.8%
16,COC(=O)[C@@H](NCc1cccc(CN[C@H](C(=O)OC)C(C)C)c1)C(C)C,inconclusive: -43%
17,CCn1nc(C)c(CNC(=O)c2ccc(OC3CCN(Cc4ccccn4)CC3)cc2)c1C,active: -91%
18,Cc1ccc(-n2c(C)nn(Cc3ccc([N+](=O)[O-])cc3)c2=O)cc1,active: -82.4%
19,CN(C)CCNC(=O)c1cccc(-c2cnc3c(NC=O)cc(-c4cccc(C(F)(F)F)c4)cn23)c1,active: -61.3%
20,O=C(Nc1ccc2c(c1)OCCO2)N1CCN(Cc2ccccc2)CC1,inactive: -5.79%
21,CCOc1ccccc1NC(=O)n1ncc2cc(Cl)ccc21,inactive: 35.7%
22,O=C(O)c1c[nH]c2c([N+](=O)[O-])cccc2c1=O,inconclusive: -46.9%

# Look-ups from the entries so far:
# Under activity change, negative = inhibition, Cc1oc(-c2ccc(C(=O)NC(C)c3ccccc3)cc2)nc1CS(=O)(=O)c1ccccc1 (stereo not given) is entered as inactive: 2.02%
# Under activity change, negative = inhibition, COc1ccc(NC(=O)Cn2c(=O)oc3cc(S(=O)(=O)N4CCCCC4C)ccc32)cc1 (stereo not given) is entered as inconclusive: 0%
# Under activity change, negative = inhibition, Cc1ccc(Nc2ncnc3c2cnn3-c2ccc(C)cc2)cc1 is entered as inactive: 33.7%
# Under activity change, negative = inhibition, CCn1nc(C)c(CNC(=O)c2ccc(OC3CCN(Cc4ccccn4)CC3)cc2)c1C is entered as active: -91%

# (more compounds)

row,SMILES,"activity change, negative = inhibition"
1,O=C(NCCc1c[nH]c2ccccc12)C(=O)NCC(c1cccnc1)N1CCN(c2ccccc2)CC1 (stereo not given),inconclusive: -57.5%
2,CC(=O)c1c(C)nn(C(=O)N2CCOCC2)c1C,inconclusive: -48.5%
3,CCCCn1c(N)c(N(CCOC)C(=O)CSc2ccc([N+](=O)[O-])cc2)c(=O)[nH]c1=O,inactive: 10.3%
4,Fc1ccc(NC(=S)NNc2ncc(C(F)(F)F)cc2Cl)c(F)c1,active: -99%
5,Cc1ccc2cc(C3CC(c4ccco4)=NN3C(=O)CCCC(=O)O)c(Cl)nc2c1 (stereo not given),inconclusive: -40.2%
6,COc1cc(/C=N/N(C)c2ccccc2)ccc1O,inactive: 307%
7,C/C(=N\Nc1ccc(Cl)nn1)c1ccccc1O,inconclusive: -46.9%
8,N#CC(C#N)=C1C=CC=CN1/C(=C\c1ccccc1Cl)C(=O)c1ccccc1,inconclusive: -53.6%
9,CCC(CC)c1nnc(NC(=O)c2cccc(S(=O)(=O)N3CCOCC3)c2)s1,inconclusive: -53.1%
10,O=C(CSc1nnc(Cc2ccccc2)o1)NCc1ccco1,inactive: 54.8%
11,COC(=O)c1ccc(NC(=S)NC2CCc3ccccc32)cc1 (stereo not given),inconclusive: -47%
12,Cc1nn(-c2ccccc2)c2c1C(c1cccnc1)N1C=C(S(=O)(=O)N3CCCCC3)C=CC1=N2 (stereo not given),inactive: 28.4%
13,O=c1[nH]c2ccccc2n1C1CCN(C(CCc2ccccc2)c2nnnn2C2CCCCC2)CC1 (stereo not given),active: -90.8%
14,CCCOCCOC(=O)c1[nH]c2c(c1C)C(=O)CC(c1cc(OC)ccc1OC)C2 (stereo not given),active: -80.4%
15,O=C(Nc1ccc(Br)cc1Br)Nc1cccc2[nH]c([C@@H]3O[C@H](CO)[C@@H](O)[C@H](O)[C@H]3O)nc12,inconclusive: -50.2%
16,COc1cc2c(cc1O)C(CSC)Cc1cc3c(cc1N(C)CC2)OCO3 (stereo not given),inactive: -25.9%
17,COc1ccc(-c2cc(C(F)(F)F)nc(SCCC(=O)Nc3cc(C)ccc3O)n2)cc1,inconclusive: -54.7%
18,CC(C)c1ccc(NC(=O)Nc2nc(C(N)C3CCCCC3)cs2)cc1 (stereo not given),active: -101%
19,C[C@H]1CCC(=O)N([C@H](CN=[N+]=[N-])Cc2ccccc2)CC1,inconclusive: -44.8%
20,CCCCn1ccc(=O)c2c(C(F)(F)F)nccc21,inconclusive: -42.3%
21,O=C(NCCc1ccc(Cl)cc1)c1cnc2sc(N3CCCCC3)nn2c1=O,inactive: 10.1%
22,COc1cc(C(=O)OCCN2CCCCC2)ccc1O,inactive: 3.08%

row,SMILES,"activity change, negative = inhibition"
1,CC(C)C[C@H]1CNC(=S)N1C[C@H]1CCCN1C[C@H](CC(C)C)N1C[C@H](Cc2ccc(O)cc2)N(CC2CCCCC2)C1=S,inconclusive: -55.8%
2,O=C(CCN1C(=O)C2C3C=CC(C4CC34)C2C1=O)Oc1cccc2cccnc12 (stereo not given),active: -95.5%
3,O=C(O)c1cc(N=Cc2c(O)c3ccccc3oc2=O)ccc1O,inconclusive: -52.8%
4,COC(=O)c1ccc2c(c1)N(Cc1ccc(F)cc1)C(=O)c1ccccc1S2,inconclusive: -44%
5,COC(=O)CSC1=C(C#N)C(c2ccc(C(C)C)cc2)CC(=O)N1 (stereo not given),inconclusive: -55.4%
6,CC(C)(C)c1ccc(-n2ncc3c2CCCC3NC(=O)CN2CCCC2=O)cc1 (stereo not given),active: -66.9%
7,CCCCN(CCCC)S(=O)(=O)c1ccc2oc(C(=O)NCc3ccc(C)cc3)c(C)c2c1,inactive: 16.3%
8,N#Cc1c(NC(=O)CSc2ncnc3c2cnn3-c2ccccc2Cl)sc2c1CCCC2,inconclusive: -49.5%
9,COc1cccc(N2C(=NC(=O)C3CCCCC3)SC3CS(=O)(=O)CC32)c1 (stereo not given),inconclusive: -45%
10,c1ccc(CNc2nc(NCc3cccs3)nc3ccsc23)cc1,inconclusive: -49.5%
11,COc1cccc(-c2nc(SCC(=O)Nc3ccc4c(c3)OCCO4)c(-c3ccccc3)[nH]2)c1,inconclusive: -57.4%
12,COC(=O)C1C(=O)OC(C)(C)C1C(C)C(=O)c1ccc(C)cc1C (stereo not given),inconclusive: -46.8%
13,COc1ccccc1CNc1nc(NCC2CC2)nc2ccsc12,active: -70.2%
14,Fc1ccc(CNc2nc(-c3cccnc3)nc3ccccc23)cc1,inactive: 17.6%
15,CCCCN(CCCC)CCNC(=O)Cn1nc(CC)n2c(cc3sc(C)cc32)c1=O,inconclusive: -53.5%
16,COc1ccc(/C=C/c2cc(-c3ccc(C)cc3)o[n+]2C)cc1,active: -104%
17,COc1ccc(Cc2nnc(Nc3ccccc3)s2)cc1Br,inactive: 29.5%
18,Cc1ccc(NC(=O)CCS(=O)(=O)c2cccc3nonc23)cc1Cl,inconclusive: -41.8%
19,CC1CCCCN1S(=O)(=O)c1ccc(C(=O)Nc2sc3c(c2C(N)=O)CC(C)(C)NC3(C)C)cc1 (stereo not given),inconclusive: -40.3%
20,CCCCc1ccc(NC(=O)c2ccc(N(C)S(C)(=O)=O)cc2)cc1,active: -80.9%
21,O=C(Nc1cc(S(=O)(=O)N2CCOCC2)ccc1N1CCCCC1)c1ccc(Cl)cc1,inconclusive: -59.6%
22,Cc1ccccc1/C=C/c1cc[n+](C)cc1,inconclusive: -57.4%

row,SMILES,"activity change, negative = inhibition"
1,O=C(c1cccc(C(F)(F)F)c1)C1CCCN(Cc2cccn2-c2ncccn2)C1 (stereo not given),inconclusive: -53.5%
2,CCOC(=O)c1cc(NC(=O)CCC(=O)O)ccc1N1CCCCC1,inconclusive: -49.7%
3,COc1ccc(CN(C)C(=O)c2ccc(OCC(=O)Nc3cccc(C(F)(F)F)c3)c(OC)c2)c(OC)c1,active: -83%
4,Cc1ccc(CS(=O)(=O)c2ncc(Cl)c(C(=O)Nc3nc4ccc(C)cc4s3)n2)cc1,active: -107%
5,Cc1cc([N+](=O)[O-])ccc1NC(=O)CN1C2CCC1CC(NC(=O)NC13CC4CC(CC(C4)C1)C3)C2 (stereo not given),inconclusive: -46.6%
6,CC(=O)Nc1ccc(S(=O)(=O)c2ccnc3cc(Cl)ccc23)cc1,active: -83.4%
7,Cc1cc(/C=C2/SC(=O)NC2=O)c(C)n1-c1ccc(N2CCOCC2)cc1,inconclusive: -47%
8,COCCCNc1oc(-c2cccs2)nc1S(=O)(=O)c1ccc(C)cc1,inconclusive: -49.2%
9,CCCCC(=O)NC(c1ccccc1Cl)c1c(O)ccc2ccccc12 (stereo not given),inconclusive: -54.2%
10,Cc1ccc(C)c(CN2C(=O)c3ccccc3S(=O)(=O)c3ccc(C(=O)N4CCN(c5ccccc5)CC4)cc32)c1,inconclusive: -43.3%
11,COc1cc(C(=O)Nc2nc3ccc(S(C)(=O)=O)cc3s2)cc(OC)c1C,inconclusive: -49.4%
12,O=C(Nc1ccc(Cl)cc1)N1CCC(c2nc(-c3ccc(F)cc3)no2)CC1,active: -90.7%
13,Oc1ccccc1N=Cc1sc2ccccc2c1Cl,active: -76%
14,COc1ccc(-c2cn3c(C)c(C(=O)Nc4cccc(C)n4)sc3n2)cc1,inconclusive: -47.3%
15,CC(=O)NS(=O)(=O)c1ccc(N=NN2CCCCC2)cc1,inactive: 8.1%
16,Cc1ccccc1Cn1nnc(C(=O)Nc2ccc3c(c2)OCCO3)c1N,inactive: 1.84%
17,CC1CN(C(=O)CCS(=O)(=O)c2ccccc2)CC(C)O1 (stereo not given),inactive: -34.2%
18,COc1cccc(C=C2SC(=S)N(Cc3ccco3)C2=O)c1OC,inactive: -34.3%
19,Cc1ccc(C)c(C(=O)COC(=O)c2n[nH]c3ccccc23)c1,active: -60.7%

# Retrieved one by one from the list above, two records:
row,SMILES,"activity change, negative = inhibition"
7,Cc1cc(/C=C2/SC(=O)NC2=O)c(C)n1-c1ccc(N2CCOCC2)cc1,inconclusive: -47%
8,COCCCNc1oc(-c2cccs2)nc1S(=O)(=O)c1ccc(C)cc1,inconclusive: -49.2%
